Measured data: PubChem BioAssay AID1224826 (NIAID, 2016)

Screen: 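Knock-downs that raise or lower Tnf reporter signal after endotoxin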 (primary screen)
System: RAW264.7 G9 macrophages from mouse bearing reporters for p65 (GFP) and the Tnf promoter (mCherry)
Reagents: siRNA pool against mouse genes, 100 nM
Time to read-out: 16 h of LPS stimulation, after 2 days of siRNA transfection
Challenge: bacterial lipopolysaccharide (Salmonella minnesota R595), 10 ng/ml
Detection: 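Nuclear mCherry signal of the Tnf promoter reporter measured by imaging after background removal, scaled to each plate median and turned into robust z-scores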
Direction: Tnf reporter robust z-score: higher = stronger Tnf promoter reporter signal after LPS; Tnf reporter intensity: higher = stronger Tnf promoter reporter signal
Rule for the call: 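a well counts as active at a score of -1.3 or below (Tlr4 knock-down control median) or above 3 (raised signal); controls and wells holding fewer than 50 cells are excluded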
Meaning of the calls: active = Tnf reporter clearly lowered or raised; inactive = no clear change in Tnf reporter
This is an unselected part of about 17,000 reagents tested. In the full data, about 1,110 (6.6%) are marked active. 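Active means lowered or raised reporter signal; replicate intensities are raw and not normalised per plate.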 Some reagents were tested in more than one well and are listed for each.

gene | Tnf reporter robust z-score | fewer than 50 cells in well | Tnf reporter intensity, replicate 1 | Tnf reporter intensity, replicate 2 | call
Or6k2 | 0.49 | enough cells in well | 126 | 123 | inactive
Inf2 | 1.12 | enough cells in well | 241 | 98.3 | inactive
Ppp2r5e | -0.23 | enough cells in well | 211 | 191 | inactive
Mmp1b | 3.73 | enough cells in well | 390 | 307 | active
Prkd2 | -1.47 | enough cells in well | 104 | 76.1 | active
Skic8 | – | fewer than 50 cells per well; well left out of calls | 234 | 123 | inactive
Gemin4 | 0.88 | enough cells in well | 317 | 180 | inactive
Txk | -0.23 | enough cells in well | 168 | 117 | inactive
Cops8 | -0.13 | enough cells in well | 167 | 179 | inactive
Tnc | 0.73 | enough cells in well | 273 | 178 | inactive
Rassf5 | 0.09 | enough cells in well | 321 | 210 | inactive
Mad2l1bp | 1.94 | enough cells in well | 321 | 237 | inactive
Or1ak2 | 0.35 | enough cells in well | 188 | 145 | inactive
Baz2a | -0.11 | enough cells in well | 141 | 266 | inactive
Zfp385a | -0.14 | enough cells in well | 95.6 | 145 | inactive
Psen1 | 0.16 | enough cells in well | 262 | 200 | inactive
Fntb | 0.57 | enough cells in well | 312 | 275 | inactive
Prps2 | -0.11 | enough cells in well | 168 | 174 | inactive
Timp4 | 0.59 | enough cells in well | 228 | 193 | inactive
Sppl2b | 0.1 | enough cells in well | 180 | 69.3 | inactive
Dmtn | -0.24 | enough cells in well | 230 | 124 | inactive
Mrpl20 | 0.45 | enough cells in well | 145 | 187 | inactive
Slc9a9 | – | fewer than 50 cells per well; well left out of calls | 42.1 | 48.4 | inactive
Jun | -0.25 | enough cells in well | 255 | 112 | inactive
Lat2 | 1.32 | enough cells in well | 198 | 160 | inactive
Abcf1 | -1.14 | enough cells in well | 124 | 119 | inactive
9930022D16Rik | 0.61 | enough cells in well | 226 | 218 | inactive
Gmppa | 0.85 | enough cells in well | 297 | 224 | inactive
Taar6 | -0.2 | enough cells in well | 208 | 261 | inactive
Eri3 | 0.3 | enough cells in well | 144 | 141 | inactive
Scyl1 | -0.3 | enough cells in well | 195 | 126 | inactive
Cldn3 | 0.64 | enough cells in well | 257 | 293 | inactive
Hus1 | -1.13 | enough cells in well | 142 | 120 | inactive
Tbx6 | 0.67 | enough cells in well | 224 | 204 | inactive
Srxn1 | 0.12 | enough cells in well | 265 | 99.6 | inactive
Prkd3 | 1.29 | enough cells in well | 270 | 242 | inactive
Npr1 | 2.19 | enough cells in well | 350 | 272 | inactive
Npr1 | 3.57 | enough cells in well | 400 | 251 | active
Snx11 | 0.92 | enough cells in well | 110 | 122 | inactive
Zfp750 | 1.77 | enough cells in well | 294 | 222 | inactive
Shoc2 | – | fewer than 50 cells per well; well left out of calls | 26.4 | 35.3 | inactive
Gast | 0.71 | enough cells in well | 348 | 263 | inactive
Opa1 | 0.23 | enough cells in well | 257 | 199 | inactive
Gigyf2 | -0.51 | enough cells in well | 101 | 74.5 | inactive
Fabp6 | 3.58 | enough cells in well | 515 | 498 | active
Npvf | -0.39 | enough cells in well | 270 | 67.2 | inactive
Rgmb | 0.2 | enough cells in well | 123 | 150 | inactive
Eml4 | – | fewer than 50 cells per well; well left out of calls | 132 | 101 | inactive
Sf3b1 | – | fewer than 50 cells per well; well left out of calls | 0 | 36.8 | inactive
Guca2a | -0.31 | enough cells in well | 169 | 182 | inactive
Ambn | -0.45 | enough cells in well | 122 | 210 | inactive
Mrpl46 | -0.06 | enough cells in well | 151 | 143 | inactive
Prkaca | -0.44 | enough cells in well | 186 | 120 | inactive
Ipo13 | -1.41 | enough cells in well | 101 | 68.7 | active
Epyc | 0.59 | enough cells in well | 223 | 138 | inactive
Derl3 | – | fewer than 50 cells per well; well left out of calls | 242 | 75.8 | inactive
Rpp25 | -0.7 | enough cells in well | 95.1 | 100 | inactive
Rpl37 | -0.65 | enough cells in well | 241 | 161 | inactive
